No constants are given. Whether binding was seen depends on the method and setting.
Molecular target: FITC-labelled Amylin1-37 (human) (UniProt P10997)
Test: other fluorescence titration

The chains behind the UniProt entries cited, without tags or fusion partners. Residues count along the entry.
UniProt P10997, residues 34-70: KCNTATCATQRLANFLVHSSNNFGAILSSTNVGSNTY
UniProt P02769, residues 25-607: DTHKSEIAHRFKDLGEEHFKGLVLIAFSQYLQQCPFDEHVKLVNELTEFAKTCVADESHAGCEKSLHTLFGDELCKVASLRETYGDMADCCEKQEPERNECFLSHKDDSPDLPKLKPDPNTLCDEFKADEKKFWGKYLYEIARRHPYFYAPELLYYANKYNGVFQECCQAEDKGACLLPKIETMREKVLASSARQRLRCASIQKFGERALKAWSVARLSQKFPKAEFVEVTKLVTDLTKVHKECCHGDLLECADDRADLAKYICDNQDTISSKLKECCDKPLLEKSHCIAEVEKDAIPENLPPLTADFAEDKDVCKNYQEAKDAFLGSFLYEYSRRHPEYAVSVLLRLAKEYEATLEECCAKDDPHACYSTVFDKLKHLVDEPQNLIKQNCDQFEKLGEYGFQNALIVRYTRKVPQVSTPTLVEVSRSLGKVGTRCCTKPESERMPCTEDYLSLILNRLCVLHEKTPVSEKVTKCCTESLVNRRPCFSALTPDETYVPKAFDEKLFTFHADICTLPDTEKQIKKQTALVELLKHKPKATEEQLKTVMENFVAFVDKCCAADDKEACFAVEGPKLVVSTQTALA

For BSA (from UniProt P02769 25-607), the binding was “no binding”.
